The text below walks through data of PubChem BioAssay AID743395 (Broad Institute, 2014).

About 480 (40%) of roughly 1,200 compounds were called active. The rule behind the calls is not given here. The set was probably picked from earlier hits. This is a selection; strong and weak results do not stand in their true shares. Results with a measured potency or affinity are listed apart.

A short description of this assay: HepG2 cell cytotoxicity, dose response, cytotoxicity control, CellTiter-Glo luminescence, cherry-pick, set 2 (AID 743395).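 Note: 0% = neutral control wells and -100% = positive control wells.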 The conditions noted are these: HepG2 viability, CellTiter-Glo ATP luminescence, 72 h; at 26 µM (top of the series). Background: Cellular ATP, detected with luciferase, serves as a proxy for viable cell number.
As to `CCOC(=O)C1CCCN(c2ccc([N+](=O)[O-])c3nonc23)C1` (configuration not stated), the activity change, negative = cytotoxicity was inactive: -5.66%.

Regarding `O=c1[nH]c(=O)n(-c2cccc3ccccc23)c(O)c1/C=N/N1CCCCC1c1cccnc1` (configuration not stated), the activity change, negative = cytotoxicity was inactive: 1.13%.

In the case of `O=P(Oc1ccc(-c2ccccc2)cc1)(N1CC1)N1CC1`, the activity change, negative = cytotoxicity was inactive: -27.4%.

Turning to `O=C1NC(=O)C(=Cc2ccc(N3CCOCC3)o2)C(=O)N1`, the activity change, negative = cytotoxicity was inactive: -16.6%.

In the case of `N#C/C(=C\c1ccc(O)cc1)C(=O)O` (tested in a mixture with another compound), the activity change, negative = cytotoxicity is inactive: -6.79%.

Take `CC1(C)OC(c2ccccc2)=C/C(=C/C=C2C(=O)NC(=O)NC2=O)O1`: the activity change, negative = cytotoxicity was inactive: -22.8%.

On to `COCCO[C@H]1CC[C@@]2(C)C(=CCC3C2CC[C@@]2(C)C3CC[C@]2(C)O)C1` (some centres not stated), for which the activity change, negative = cytotoxicity is inactive: -0.607%.

Regarding `CCOP(=O)(C#Cc1ccccc1)C(O)c1ccc(Br)cc1` (configuration not stated), the activity change, negative = cytotoxicity is inactive: -0.875%.

`CC1=NCCc2c1[nH]c1cc(O)ccc21`: the activity change, negative = cytotoxicity is inactive: -7.19%.

On to `C[C@]12CCC3C(CC[C@H]4[C@H](O)[C@H](O)CC[C@]34C)C1CCC2=O` (some centres not stated), for which the activity change, negative = cytotoxicity is inactive: 5.48%.

In the case of `c1ccc2nc(N3CCNCC3)ccc2c1`, the activity change, negative = cytotoxicity is inactive: 1.68%.

Turning to `COc1nc(C)nc(NC(=O)NS(=O)(=O)c2ccccc2Cl)n1`, the activity change, negative = cytotoxicity was inactive: 1.41%.

As to `COc1cc([C@@H]2c3cc4c(cc3[C@@H](OC)[C@H]3COC(=O)[C@H]23)OCO4)cc(OC)c1O`, the activity change, negative = cytotoxicity was inactive: -10.6%.

Take `CCOC(=O)c1cncn1[C@@H](C)c1ccccc1`: the activity change, negative = cytotoxicity is inactive: -4.3%.

In the case of `CC1(C)OC(c2ccccc2)=C/C(=C/C=C2C(=O)NC(=S)NC2=O)O1`, the activity change, negative = cytotoxicity is inactive: -12.9%.

For `CCC1(C)OC(c2ccccc2)=C/C(=C/C=C2C(=O)NC(=O)NC2=O)O1` (configuration not stated), the activity change, negative = cytotoxicity is inactive: 8.87%.

On to `Nc1ccc(Cl)c(Cl)c1`, for which the activity change, negative = cytotoxicity is inactive: 5.82%.

For `CCC1(CC)C(=O)C=CNC1=O`, the activity change, negative = cytotoxicity is inactive: -15%.

In the case of `C[C@@H](N)Cc1cnc[nH]1`, the activity change, negative = cytotoxicity was inactive: 9.02%.

For `CC[C@H]1CN2CCC1C[C@H]2[C@H](O)c1ccnc2ccc(OC)cc12` (some centres not stated), the activity change, negative = cytotoxicity is inactive: 3.28%.

For `COc1ccc(-c2ccc(OC)c(OC)c2OC)cc1`, the activity change, negative = cytotoxicity was inactive: -2.79%.

Consider `CC(C)C[C@@H]1COc2cccc(N3CCN(C)CC3)c2S(=O)(=O)N1`, for which the activity change, negative = cytotoxicity is inactive: -14.9%.
